Literature values as cited in patent publication US20190307732A1, “METHODS OF TREATING MITOCHONDRIAL AND METABOLIC DISORDERS” (Abraxis Bioscience, LLC, priority 2016, published 2019).
For at least one compound, name, drawing or mass did not settle the structure.

Tested on: S6 phosphorylation
Conditions: 100 ng/mL rapamycin; cited from earlier work

## CO[C@H]1C[C@@H]2CC[C@@H](C)[C@@](O)(O2)C(=O)C(=O)N2CCCC[C@H]2C(=O)O[C@H]([C@H](C)C[C@@H]2CC[C@@H](O)[C@H](OC)C2)CC(=O)[C@H](C)/C=C(\C)[C@@H](O)[C@@H](OC)C(=O)[C@H](C)C[C@H](C)/C=C/C=C/C=C/1C [rapamycin]
  inhibition of S6 phosphorylation: robustly inhibits
